Laboratory results from paper PMC7819943, “Rice protein-binding microarrays: a tool to detect cis-acting elements near promoter regions in rice”.
The other results are listed elsewhere or left out.

Each sequence was assayed against T1, OsSMF1 (Oryza sativa, UniProt Q6ZLB0 1-436) (assay: protein-binding microarray (RPBM); PBS, 2% BSA, 51.3 ng/ul salmon testes DNA, 50 uM zinc acetate, 200 nM TF, 25 C, 1 h; high values mean tight binding). Conditions: protein: recombinant; tags: N-terminal polyhistidine and DsRed monomer fusion (pET32a); chain copies: 2; label: CyDye5-dUTP incorporated in the synthesized complementary strand; 3' TTTTT single-stranded linker to array surface; dsDNA, one strand shown.
T1 sequence: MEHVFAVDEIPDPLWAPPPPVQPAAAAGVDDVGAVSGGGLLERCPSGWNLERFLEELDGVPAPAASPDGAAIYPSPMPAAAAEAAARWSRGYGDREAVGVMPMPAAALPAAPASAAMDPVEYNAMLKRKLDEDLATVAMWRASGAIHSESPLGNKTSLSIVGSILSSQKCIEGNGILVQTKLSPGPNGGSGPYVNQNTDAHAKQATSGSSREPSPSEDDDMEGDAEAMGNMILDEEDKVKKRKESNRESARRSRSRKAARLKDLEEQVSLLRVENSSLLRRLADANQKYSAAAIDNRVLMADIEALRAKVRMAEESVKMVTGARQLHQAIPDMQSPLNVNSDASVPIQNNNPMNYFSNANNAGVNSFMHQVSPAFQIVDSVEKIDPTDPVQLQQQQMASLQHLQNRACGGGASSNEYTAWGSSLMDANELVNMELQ
How it was run: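 Transcription factors were made in E. coli BL21-CodonPlus as N-terminal fusions to a polyhistidine tag and DsRed, then purified on Ni–NTA. After primer extension with Cy5-dUTP and blocking with 2% BSA, a custom Agilent array was exposed for 1 h at 25 °C to 200 nM protein in PBS, 2% BSA, salmon testes DNA and 50 µM zinc acetate. Washed arrays were scanned on an Axon 4000B, and the binding signal is per-feature fluorescence intensity in arbitrary units.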

| Sequence | binding signal |
| --- | --- |
| ATATGTGAAAGTGTGGTATGTGTTTCACACGTGTGCATCTCGGAGTCACCTAGTGCAG | 10200 fluorescence intensity (a.u.) |
| CGTGGTGGACGGCCTCGACGAGGCGATCTGCCCGGTGGCGCGGAGTCACCTAGTGCAG | 3240 fluorescence intensity (a.u.) |
| AACGCATCGTCTCCTCTCCGCCGCCGCAGCGGAAGCGGAACGGAGTCACCTAGTGCAG | 3780 fluorescence intensity (a.u.) |
| GTAGCATTGCGCGTGACGGCAGCAATGGCTTGACTTCCCACGGAGTCACCTAGTGCAG | 3910 fluorescence intensity (a.u.) |
| TATATAGGGCTGGATGGAAAGTTGGTGACTCTTAGCTCAGCGGAGTCACCTAGTGCAG | 4870 fluorescence intensity (a.u.) |
| TTAATGTCCGAACACCTCATACAACGTGACGCGTCAAAACCGGAGTCACCTAGTGCAG | 6890 fluorescence intensity (a.u.) |
| ATTACGTGATGAACTGATTCTTGGACATAGAGATACGTGTCGGAGTCACCTAGTGCAG | 3560 fluorescence intensity (a.u.) |
| GACGATCCCCATACTATGCAAATACCAGAATGACGACATCCGGAGTCACCTAGTGCAG | 3880 fluorescence intensity (a.u.) |
| TTTGATGTGTTCAACTTGTCTTCGAACTACACTCTCTTCTCGGAGTCACCTAGTGCAG | 3730 fluorescence intensity (a.u.) |
| CATTGCTCAACAAACTCATGTCACGTCATCCAGGGACAGACGGAGTCACCTAGTGCAG | 5580 fluorescence intensity (a.u.) |
| GTGTTGGTTATGTACCTCATACTGTGCATGATTTGTCCCTCGGAGTCACCTAGTGCAG | 3220 fluorescence intensity (a.u.) |
| CCTTCCACGCCACCTCTCCCCTTCCCACAGTCCCACGTCGCGGAGTCACCTAGTGCAG | 4150 fluorescence intensity (a.u.) |
| TTTTGGATGTCACATCGGATGTTTGACCGGATATTGGATGCGGAGTCACCTAGTGCAG | 3230 fluorescence intensity (a.u.) |
| ATAACTCATGGGAGCTGTCGAGCTGATGAGATGTCATGCACGGAGTCACCTAGTGCAG | 3400 fluorescence intensity (a.u.) |
| AATAATCGAATCCAATCCATCTTCCACGCGCATTCCGGATCGGAGTCACCTAGTGCAG | 3350 fluorescence intensity (a.u.) |
| TGCGGTTCCGTGTCGTCCAAATTAATGTGTCACTGTTAATCGGAGTCACCTAGTGCAG | 4710 fluorescence intensity (a.u.) |
| GTGGGTCTACCATTCAGCTCGCGACGCGTGTGCTTCCTGTCGGAGTCACCTAGTGCAG | 4250 fluorescence intensity (a.u.) |
| GATCTGTCTACACATGCATGACCCTCGCGAGACTCATCTCCGGAGTCACCTAGTGCAG | 3200 fluorescence intensity (a.u.) |
| GCCCGTGTGTACGTACGTTACGTTACTTCCTCGTGCCGTGCGGAGTCACCTAGTGCAG | 3500 fluorescence intensity (a.u.) |
| ATGTCAAAAGTTCCATTATTATACACACAATCTGCCTCTCCGGAGTCACCTAGTGCAG | 3150 fluorescence intensity (a.u.) |
| ACGAATGGTCAAACGTTGGTTAAAAGGTTAAATGCGTCATCGGAGTCACCTAGTGCAG | 3560 fluorescence intensity (a.u.) |

Some values from the list.
binding signal with CGTGGTGGACGGCCTCGACGAGGCGATCTGCCCGGTGGCGCGGAGTCACCTAGTGCAG reads 3240 fluorescence intensity (a.u.)
binding signal with ATTACGTGATGAACTGATTCTTGGACATAGAGATACGTGTCGGAGTCACCTAGTGCAG reads 3560 fluorescence intensity (a.u.)
binding signal with TATATAGGGCTGGATGGAAAGTTGGTGACTCTTAGCTCAGCGGAGTCACCTAGTGCAG reads 4870 fluorescence intensity (a.u.)
binding signal with CATTGCTCAACAAACTCATGTCACGTCATCCAGGGACAGACGGAGTCACCTAGTGCAG reads 5580 fluorescence intensity (a.u.)

More entries

| Sequence | binding signal |
| --- | --- |
| CACGCTTCCGCCTTCCCATCGATGAGCTGGCGAGCTCGACCGGAGTCACCTAGTGCAG | 6370 fluorescence intensity (a.u.) |
| AATAGTTTGATATTTTATGACATACGTGGTAATAAAACGCCGGAGTCACCTAGTGCAG | 5760 fluorescence intensity (a.u.) |
| CTGCGAGAGCCAGTGGTGACGCCAGCGATGCGGGAGGAGGCGGAGTCACCTAGTGCAG | 4740 fluorescence intensity (a.u.) |
| AGCCGCCGTAATTCGTACTACACGGCAGCACAAAGTGTTCCGGAGTCACCTAGTGCAG | 3360 fluorescence intensity (a.u.) |
| CGGCCACTCCACCTAGTTGAATGCCCACTGGAGCTACTATCGGAGTCACCTAGTGCAG | 3160 fluorescence intensity (a.u.) |
| CGAGAGAAACAGAGCGGAACACGTGTCCTTTCGCTCTTCTCGGAGTCACCTAGTGCAG | 12500 fluorescence intensity (a.u.) |
| AGCGACGAATTCGTCAAACCCATCATCTCCTTCGCGCCGTCGGAGTCACCTAGTGCAG | 12300 fluorescence intensity (a.u.) |
| TGTAACATGTGGTCACCTCATACGTCATCATCGGAGAAGACGGAGTCACCTAGTGCAG | 8910 fluorescence intensity (a.u.) |
| CCGACAGTAGCCGTCGTCAGCTTCTTCGTTGGCACGCCGCCGGAGTCACCTAGTGCAG | 4830 fluorescence intensity (a.u.) |
| TTCTCTATTTGGTTTTGTCACTGGTCAATGCCACCAACTGCGGAGTCACCTAGTGCAG | 4140 fluorescence intensity (a.u.) |
| TAGAGAGCGGTTTTGCTGACGTGGCGTATACGTGACGGTACGGAGTCACCTAGTGCAG | 33100 fluorescence intensity (a.u.) |
| CACATTTGCCAGCACCGAGATCTCCAGAGCCAGATATTCCCGGAGTCACCTAGTGCAG | 3580 fluorescence intensity (a.u.) |
| GGGACGGGTAGTCCCGAAGAGAGGGAAGTGTCATCTTCGTCGGAGTCACCTAGTGCAG | 3370 fluorescence intensity (a.u.) |
| TAGATCCAAAACCAGCGAAATCTACACCAAATCCACGCGGCGGAGTCACCTAGTGCAG | 3240 fluorescence intensity (a.u.) |
| AGCTGGCTTCAATCTCCGGAAGATAGTCTTGTCATGCTAGCGGAGTCACCTAGTGCAG | 3170 fluorescence intensity (a.u.) |
| GATCGCCGCCGCTGCGGTGAAAGGGGTTTTCTTTATATAGCGGAGTCACCTAGTGCAG | 35000 fluorescence intensity (a.u.) |
| GATTGATGAGGCCGCAAAGCCTGGCTGCCTGCCTGCTTCTCGGAGTCACCTAGTGCAG | 54300 fluorescence intensity (a.u.) |
| CGCTGGCGTGGACGCGGCCGGGGCGCGACACGTCACGGGGCGGAGTCACCTAGTGCAG | 15300 fluorescence intensity (a.u.) |
| GGCCGTGATACGACATTTTGCCACGAGGGCCCAATATGGACGGAGTCACCTAGTGCAG | 4440 fluorescence intensity (a.u.) |
| GCCCCACCGCACGTGTCACTTGAACCTGTACTACGTACTACGGAGTCACCTAGTGCAG | 4690 fluorescence intensity (a.u.) |
| GAACTCTAGATTTTGATCCCATGAGTCATGAAAAGCACTCCGGAGTCACCTAGTGCAG | 6170 fluorescence intensity (a.u.) |
